These are yes or no findings as the source states them, for the method shown. Some results given as binding are weak or reduced against the parent protein; the word gives no strength.
T1: SPD-5, full length, phosphorylated by constitutively active PLK-1 (C. elegans), P91349
T1 chain: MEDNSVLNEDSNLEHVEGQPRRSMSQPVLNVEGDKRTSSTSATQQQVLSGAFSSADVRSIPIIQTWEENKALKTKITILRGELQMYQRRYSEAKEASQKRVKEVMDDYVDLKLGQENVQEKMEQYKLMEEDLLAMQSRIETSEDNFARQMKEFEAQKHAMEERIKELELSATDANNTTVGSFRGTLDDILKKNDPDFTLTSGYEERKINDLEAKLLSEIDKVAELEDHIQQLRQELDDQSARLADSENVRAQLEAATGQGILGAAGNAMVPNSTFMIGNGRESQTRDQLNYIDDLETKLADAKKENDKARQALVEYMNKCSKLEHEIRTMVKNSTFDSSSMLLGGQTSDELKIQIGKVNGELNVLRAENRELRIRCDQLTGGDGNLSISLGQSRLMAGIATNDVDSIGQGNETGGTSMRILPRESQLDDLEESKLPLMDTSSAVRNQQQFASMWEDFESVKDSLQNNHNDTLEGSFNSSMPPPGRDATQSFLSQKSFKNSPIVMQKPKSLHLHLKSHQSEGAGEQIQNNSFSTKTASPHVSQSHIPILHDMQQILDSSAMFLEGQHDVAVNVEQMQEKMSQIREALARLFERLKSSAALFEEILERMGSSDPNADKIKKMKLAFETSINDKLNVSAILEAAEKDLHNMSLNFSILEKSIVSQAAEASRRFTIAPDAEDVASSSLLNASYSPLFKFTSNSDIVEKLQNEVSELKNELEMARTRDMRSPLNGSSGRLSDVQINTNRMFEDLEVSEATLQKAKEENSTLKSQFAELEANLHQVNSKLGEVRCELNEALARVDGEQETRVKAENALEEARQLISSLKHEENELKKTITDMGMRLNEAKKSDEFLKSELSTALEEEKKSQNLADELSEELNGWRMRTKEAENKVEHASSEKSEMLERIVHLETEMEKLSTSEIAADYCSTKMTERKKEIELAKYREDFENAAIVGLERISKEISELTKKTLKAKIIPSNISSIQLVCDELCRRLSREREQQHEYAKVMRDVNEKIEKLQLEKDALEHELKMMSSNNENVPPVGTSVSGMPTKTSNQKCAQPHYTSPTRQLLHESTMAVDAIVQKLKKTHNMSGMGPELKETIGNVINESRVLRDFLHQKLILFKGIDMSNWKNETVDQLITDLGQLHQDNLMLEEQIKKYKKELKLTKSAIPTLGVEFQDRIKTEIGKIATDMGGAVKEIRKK


Key:
[1] = biological target: T1, SPD-5, full length, phosphorylated by …; assay: cross-linking; XL-MS with the zero-length crosslinker DMTMM (8 mM, 45 min, room temperature) on 1 uM dephosphorylated SPD-5 + 1 uM PLK-1 (KD or CA), 0.2 mM ATP, 10 mM MgCl2, 150 mM KCl, 25 mM HEPES pH 7.4, 0.5 mM DTT, 2 h; SDS-PAGE multimer bands excised and analysed by MS; crosslinks also found in monomer bands subtracted; n = 6 replicates; both purified; conditions: remark: other sources report otherwise
[2] = biological target: SPD-5, full length, dephosphorylated (incubated with kinase-dead PLK-1) (C. elegans) (UniProt P91349); assay: as above

| binding [1] | binding [2] | Binder |
| --- | --- | --- |
| binds | – | SPD-5, full length, phosphorylated by constitutively active PLK-1, P91349 1-1198 (protein, here or on the partner: phosphorylated by PLK-1(CA); all sites are listed in Data S1; phosphorylated by PLK-1(CA); all sites are listed in Data S1) MEDNSVLNEDSNLEHVEGQPRRSMSQPVLNVEGDKRTSSTSATQQQVLSGAFSSADVRSIPIIQTWEENKALKTKITILRGELQMYQRRYSEAKEASQKRVKEVMDDYVDLKLGQENVQEKMEQYKLMEEDLLAMQSRIETSEDNFARQMKEFEAQKHAMEERIKELELSATDANNTTVGSFRGTLDDILKKNDPDFTLTSGYEERKINDLEAKLLSEIDKVAELEDHIQQLRQELDDQSARLADSENVRAQLEAATGQGILGAAGNAMVPNSTFMIGNGRESQTRDQLNYIDDLETKLADAKKENDKARQALVEYMNKCSKLEHEIRTMVKNSTFDSSSMLLGGQTSDELKIQIGKVNGELNVLRAENRELRIRCDQLTGGDGNLSISLGQSRLMAGIATNDVDSIGQGNETGGTSMRILPRESQLDDLEESKLPLMDTSSAVRNQQQFASMWEDFESVKDSLQNNHNDTLEGSFNSSMPPPGRDATQSFLSQKSFKNSPIVMQKPKSLHLHLKSHQSEGAGEQIQNNSFSTKTASPHVSQSHIPILHDMQQILDSSAMFLEGQHDVAVNVEQMQEKMSQIREALARLFERLKSSAALFEEILERMGSSDPNADKIKKMKLAFETSINDKLNVSAILEAAEKDLHNMSLNFSILEKSIVSQAAEASRRFTIAPDAEDVASSSLLNASYSPLFKFTSNSDIVEKLQNEVSELKNELEMARTRDMRSPLNGSSGRLSDVQINTNRMFEDLEVSEATLQKAKEENSTLKSQFAELEANLHQVNSKLGEVRCELNEALARVDGEQETRVKAENALEEARQLISSLKHEENELKKTITDMGMRLNEAKKSDEFLKSELSTALEEEKKSQNLADELSEELNGWRMRTKEAENKVEHASSEKSEMLERIVHLETEMEKLSTSEIAADYCSTKMTERKKEIELAKYREDFENAAIVGLERISKEISELTKKTLKAKIIPSNISSIQLVCDELCRRLSREREQQHEYAKVMRDVNEKIEKLQLEKDALEHELKMMSSNNENVPPVGTSVSGMPTKTSNQKCAQPHYTSPTRQLLHESTMAVDAIVQKLKKTHNMSGMGPELKETIGNVINESRVLRDFLHQKLILFKGIDMSNWKNETVDQLITDLGQLHQDNLMLEEQIKKYKKELKLTKSAIPTLGVEFQDRIKTEIGKIATDMGGAVKEIRKK |
| – | binds weakly | SPD-5, full length, dephosphorylated (incubated with kinase-dead PLK-1) (protein, UniProt P91349 1-1198) MEDNSVLNEDSNLEHVEGQPRRSMSQPVLNVEGDKRTSSTSATQQQVLSGAFSSADVRSIPIIQTWEENKALKTKITILRGELQMYQRRYSEAKEASQKRVKEVMDDYVDLKLGQENVQEKMEQYKLMEEDLLAMQSRIETSEDNFARQMKEFEAQKHAMEERIKELELSATDANNTTVGSFRGTLDDILKKNDPDFTLTSGYEERKINDLEAKLLSEIDKVAELEDHIQQLRQELDDQSARLADSENVRAQLEAATGQGILGAAGNAMVPNSTFMIGNGRESQTRDQLNYIDDLETKLADAKKENDKARQALVEYMNKCSKLEHEIRTMVKNSTFDSSSMLLGGQTSDELKIQIGKVNGELNVLRAENRELRIRCDQLTGGDGNLSISLGQSRLMAGIATNDVDSIGQGNETGGTSMRILPRESQLDDLEESKLPLMDTSSAVRNQQQFASMWEDFESVKDSLQNNHNDTLEGSFNSSMPPPGRDATQSFLSQKSFKNSPIVMQKPKSLHLHLKSHQSEGAGEQIQNNSFSTKTASPHVSQSHIPILHDMQQILDSSAMFLEGQHDVAVNVEQMQEKMSQIREALARLFERLKSSAALFEEILERMGSSDPNADKIKKMKLAFETSINDKLNVSAILEAAEKDLHNMSLNFSILEKSIVSQAAEASRRFTIAPDAEDVASSSLLNASYSPLFKFTSNSDIVEKLQNEVSELKNELEMARTRDMRSPLNGSSGRLSDVQINTNRMFEDLEVSEATLQKAKEENSTLKSQFAELEANLHQVNSKLGEVRCELNEALARVDGEQETRVKAENALEEARQLISSLKHEENELKKTITDMGMRLNEAKKSDEFLKSELSTALEEEKKSQNLADELSEELNGWRMRTKEAENKVEHASSEKSEMLERIVHLETEMEKLSTSEIAADYCSTKMTERKKEIELAKYREDFENAAIVGLERISKEISELTKKTLKAKIIPSNISSIQLVCDELCRRLSREREQQHEYAKVMRDVNEKIEKLQLEKDALEHELKMMSSNNENVPPVGTSVSGMPTKTSNQKCAQPHYTSPTRQLLHESTMAVDAIVQKLKKTHNMSGMGPELKETIGNVINESRVLRDFLHQKLILFKGIDMSNWKNETVDQLITDLGQLHQDNLMLEEQIKKYKKELKLTKSAIPTLGVEFQDRIKTEIGKIATDMGGAVKEIRKK |

From publication PMC10921949, “Multivalent coiled-coil interactions enable full-scale centrosome assembly and strength” (The Journal of Cell Biology, 2024)
